Assay [1] has as its system human myeloid leukemia cell line HL60. Put plainly: Cell growth test, HL60 (CellTiter-Glo). Conditions: read-out: Cell growth inhibitory effect (GI50); HL60 cells, 3 days, CellTiter-Glo luminescence. The protocol: The cell growth test was carried out using the human myeloid leukemia cell line HL60 (available from ATCC, CRL-240). As a culture medium of HL60 cells, RPMI 1640 (available from FUJIFILM Wako Pure Chemical Corporation, 189-02025) supplemented with 10% fetal bovine serum (available from Thermo Fisher Scientific, Inc., 10437-028), and 1% penicillin-streptomycin (10,000 U/mL, available from Thermo Fisher Scientific, Inc., 15140-122) was used. HL60 cells were seeded on a 384-well plate (available from Corning Inc., 4588) at a cell density of 1×10^3 cells/20 μL/well. After culturing overnight, 5 μL of the test compound having a predetermined concentration was added, and 3 days later, 25 μL of CellTiter-Glo (registered trademark) Luminescent Cell Viability Assay (available from Promega Corporation, G7573) was added, and then the amount of luminescence was measured using an EnVision plate reader (available from PerkinElmer, Inc.). Since the amount of luminescence is proportional to the intracellular concentration of adenosine triphosphate (ATP), the amount of luminescence was used as an indicator of the number of viable cells. The growth inhibitory concentration for each test compound concentration was calculated by the following expression. […]
(In general: Cellular ATP, detected with luciferase, serves as a proxy for viable cell number.)

Sequences of proteins named here, by UniProt entry; tags and fusion partners are left off. Residues count along the entry.
UniProt Q02127, 31-395 limits assumed: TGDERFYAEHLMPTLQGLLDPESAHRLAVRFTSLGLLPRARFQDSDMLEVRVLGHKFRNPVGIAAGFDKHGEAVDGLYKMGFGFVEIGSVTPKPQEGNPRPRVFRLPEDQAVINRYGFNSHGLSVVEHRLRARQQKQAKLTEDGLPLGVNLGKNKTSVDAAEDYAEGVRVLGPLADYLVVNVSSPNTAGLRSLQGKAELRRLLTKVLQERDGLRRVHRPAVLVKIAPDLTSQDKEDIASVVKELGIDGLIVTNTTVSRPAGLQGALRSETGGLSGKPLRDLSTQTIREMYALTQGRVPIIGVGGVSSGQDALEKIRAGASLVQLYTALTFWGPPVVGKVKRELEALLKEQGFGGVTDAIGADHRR

The next assay has as its target recombinant human DHODH (Homo sapiens, UniProt Q02127). Put plainly: DHODH enzyme reaction inhibition test (DCIP-coupled assay). Conditions: read-out: Enzyme reaction inhibitory effect (IC50); recombinant human DHODH 0.175 μg/mL, DCIP absorbance 600 nm, 50 minutes, pH 8.0. How it is done: The DHODH enzyme assay was carried out with reference to “Benjamin Bader, Wolfgang Knecht, Markus Fries, and Monika Loffler, Expression, Purification, and Characterization of Histidine-Tagged Rat and Human Flavoenzyme Dihydroorotate Dehydrogenase, Protein Expression and Purification, 1998, 13, 414-422.”
The DHODH activity was evaluated using an enzyme assay system that is coupled with an assay in which a blue coloring agent 2,6-dichlorophenolindophenol (DCIP, available from MP Biomedicals, LLC, MP150118) is quenched. […] The enzyme activity was assessed by measuring the decrease in DCIP absorbance (600 nm) for 50 minutes using an EnVision plate-reading spectrophotometer (available from PerkinElmer, Inc.). […]

By GI50 is commonly meant the concentration giving 50% growth inhibition. For orientation: IC50 means the concentration that inhibits the measured activity by half.

Structures were worked out from names or drawings and are uncertain.

In the case of `O=C(NO)c1nc(C2CC2)cnc1Nc1cccc(C2=CCOCC2)c1OCC(F)(F)F`, the GI50 in assay [1] is less than 100 nM. In addition, the IC50 on recombinant human DHODH was 10 to 100 nM.

These data come from patent US12637435B2, “Nitrogen-containing heterocyclic compound or salt thereof, use thereof, and intermediate thereof” (FUJIFILM Corporation, priority 2020, dated 2026).
